Here are results for 2 substances from publication PMC10146569.

The chains behind the UniProt entries cited, without tags or fusion partners.
UniProt P03496: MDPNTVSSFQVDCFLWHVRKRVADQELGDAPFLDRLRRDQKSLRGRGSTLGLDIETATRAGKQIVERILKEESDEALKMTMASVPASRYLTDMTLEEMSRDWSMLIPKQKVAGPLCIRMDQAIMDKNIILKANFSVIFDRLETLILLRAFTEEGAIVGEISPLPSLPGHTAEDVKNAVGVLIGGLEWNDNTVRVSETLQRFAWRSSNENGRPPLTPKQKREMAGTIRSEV
UniProt P28370: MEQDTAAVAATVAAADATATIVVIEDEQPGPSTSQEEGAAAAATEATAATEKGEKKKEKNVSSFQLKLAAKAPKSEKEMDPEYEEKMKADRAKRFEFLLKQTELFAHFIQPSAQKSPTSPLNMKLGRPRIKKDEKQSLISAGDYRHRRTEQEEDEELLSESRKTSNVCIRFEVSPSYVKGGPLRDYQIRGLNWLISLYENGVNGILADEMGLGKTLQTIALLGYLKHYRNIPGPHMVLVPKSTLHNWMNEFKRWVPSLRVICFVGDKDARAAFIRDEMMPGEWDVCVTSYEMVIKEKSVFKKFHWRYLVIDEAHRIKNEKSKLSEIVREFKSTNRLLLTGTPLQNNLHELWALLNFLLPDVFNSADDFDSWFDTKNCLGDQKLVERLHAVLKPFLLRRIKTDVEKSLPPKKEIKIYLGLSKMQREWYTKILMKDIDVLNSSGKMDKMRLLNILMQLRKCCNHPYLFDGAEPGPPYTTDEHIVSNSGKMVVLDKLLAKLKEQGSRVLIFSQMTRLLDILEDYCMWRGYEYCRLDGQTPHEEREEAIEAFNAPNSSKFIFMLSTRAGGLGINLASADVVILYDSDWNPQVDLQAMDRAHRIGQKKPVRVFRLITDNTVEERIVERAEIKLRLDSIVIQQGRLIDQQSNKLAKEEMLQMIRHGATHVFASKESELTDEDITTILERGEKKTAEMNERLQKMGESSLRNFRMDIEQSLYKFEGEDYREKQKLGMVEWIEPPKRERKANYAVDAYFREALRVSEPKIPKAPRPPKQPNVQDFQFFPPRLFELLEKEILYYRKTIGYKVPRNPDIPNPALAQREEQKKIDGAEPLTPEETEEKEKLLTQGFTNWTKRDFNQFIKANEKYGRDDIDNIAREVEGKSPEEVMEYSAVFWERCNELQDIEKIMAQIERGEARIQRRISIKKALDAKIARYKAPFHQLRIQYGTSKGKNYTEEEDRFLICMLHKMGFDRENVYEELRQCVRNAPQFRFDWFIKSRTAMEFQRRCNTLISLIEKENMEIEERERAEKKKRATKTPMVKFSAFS
UniProt Q9UKM9: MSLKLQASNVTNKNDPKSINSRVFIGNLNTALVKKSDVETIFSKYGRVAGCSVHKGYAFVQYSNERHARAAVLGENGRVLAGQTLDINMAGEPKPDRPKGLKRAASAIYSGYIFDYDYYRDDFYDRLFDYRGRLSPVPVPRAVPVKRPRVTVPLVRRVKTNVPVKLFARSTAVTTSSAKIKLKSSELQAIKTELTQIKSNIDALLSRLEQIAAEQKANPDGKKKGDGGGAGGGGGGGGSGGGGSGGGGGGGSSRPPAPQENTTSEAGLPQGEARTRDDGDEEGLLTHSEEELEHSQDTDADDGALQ

For assay [1], the target named is viral NS1 protein of PR8/H1N1 virus in infected cells (influenza A virus A/Puerto Rico/8/34 (H1N1) (PR8)) (UniProt P03496). In words: affinity purification with mass spectrometry.
Assay [2] has as its target Flag-tagged NS1 (influenza A virus (strain of the plasmid not stated; PR8/H1N1 used throughout)) (UniProt P03496). In words: affinity purification with mass spectrometry.

Results are given in words; binding and its absence hold for the method and conditions named. Binding seen in cells or lysates may run through a third protein. These calls come from enrichment with a bait or labelling near it, and not all partners need be listed.

With SNF2L (from UniProt P28370 1-1042), the binding entry in assay [1] and in assay [2] was “binds” in each case.
In the case of RALY (from UniProt Q9UKM9 1-306), the binding entry in assay [1] and in assay [2] was “binds” throughout.
